Among the data in publication PMC12767070 are binding values, retold here.

The chains behind the UniProt entries cited, without tags or fusion partners.
UniProt Q9R190: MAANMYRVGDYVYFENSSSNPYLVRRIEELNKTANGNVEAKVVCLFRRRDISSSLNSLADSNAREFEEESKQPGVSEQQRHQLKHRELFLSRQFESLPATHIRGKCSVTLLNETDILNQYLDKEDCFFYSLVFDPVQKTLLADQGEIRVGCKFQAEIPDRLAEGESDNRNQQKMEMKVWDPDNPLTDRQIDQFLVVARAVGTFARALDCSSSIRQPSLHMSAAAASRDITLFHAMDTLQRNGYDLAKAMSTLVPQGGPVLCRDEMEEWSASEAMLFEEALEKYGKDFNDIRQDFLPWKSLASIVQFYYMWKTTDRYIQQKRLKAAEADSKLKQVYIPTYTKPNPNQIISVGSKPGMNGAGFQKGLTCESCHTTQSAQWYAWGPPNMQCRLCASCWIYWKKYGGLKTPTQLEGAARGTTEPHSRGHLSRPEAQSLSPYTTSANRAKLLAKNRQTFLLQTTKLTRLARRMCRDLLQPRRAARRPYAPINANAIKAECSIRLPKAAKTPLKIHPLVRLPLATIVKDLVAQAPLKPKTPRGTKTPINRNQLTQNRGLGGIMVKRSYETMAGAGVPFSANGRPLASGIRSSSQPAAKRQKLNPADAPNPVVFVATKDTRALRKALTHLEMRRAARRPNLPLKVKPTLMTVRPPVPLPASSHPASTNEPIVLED

These are yes or no findings as the source states them, for the method shown. In cells and extracts the contact can be indirect. These calls come from enrichment with a bait or labelling near it, and not all partners need be listed.

The target of this assay is T1, high mobility group box 2 (HMGB2), endogenous mouse (mouse (endogenous in neonatal mouse myocardium and NMCMs)) (UniProt P30681).
T1 sequence: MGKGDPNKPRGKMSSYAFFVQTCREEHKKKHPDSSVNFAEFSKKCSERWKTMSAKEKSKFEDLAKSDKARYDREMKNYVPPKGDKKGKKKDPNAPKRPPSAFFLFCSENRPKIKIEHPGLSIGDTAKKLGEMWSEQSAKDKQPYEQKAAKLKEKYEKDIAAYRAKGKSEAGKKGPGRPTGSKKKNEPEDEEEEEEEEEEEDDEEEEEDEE
In words: affinity purification with mass spectrometry; immunoprecipitation of HMGB2 from the myocardium of P1 mice following apical resection; SDS-PAGE, silver staining, mass spectrometry.

As to “metastasis‐associated protein 2 (MTA2), endogenous mouse (from UniProt Q9R190 1-668)”, the binding result is recorded as “binds”.
